No constants are given. Whether binding was seen depends on the method and setting. Some binding calls cover weakened binding; strength is not graded here. Tags and fused reporters may be left off the sequences shown.
How the values were obtained:
biotinylated CD200R1 [1] = molecular target: T1, biotinylated CD200R1 (UniProt Q8TD46 29-265, biotin (site not stated)); test: AlphaScreen or HTRF; AlphaLISA competition; 0.3 nM CD200R1-(biot) and 3 nM CD200-His, or the CD200R1-(biot)/BOC1-His complex, with a dose response of CD200-Fc (0.1 to 100 nM), 1 h at room temperature; read as % dissociation of the complex; both purified
T1 construct: CD200R1 (CD200 receptor 1), soluble biotinylated protein; Held on streptavidin Donor beads in the AlphaLISA; also called CD200R1-(biot)
T1 sequence (looked up): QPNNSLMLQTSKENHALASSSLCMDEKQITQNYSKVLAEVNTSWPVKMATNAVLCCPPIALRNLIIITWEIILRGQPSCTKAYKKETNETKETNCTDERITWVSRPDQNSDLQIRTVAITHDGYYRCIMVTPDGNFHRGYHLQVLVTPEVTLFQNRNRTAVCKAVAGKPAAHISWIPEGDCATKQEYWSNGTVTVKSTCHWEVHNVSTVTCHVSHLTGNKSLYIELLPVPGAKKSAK

biotinylated CD200R1 [2] = molecular target: T1, biotinylated CD200R1; test: AlphaScreen or HTRF; AlphaLISA competition; CD200-His/CD200R1-(biot) (3 nM each by the legend; 0.3 nM CD200R1-(biot) and 3 nM CD200-His by the methods) with untagged 50 aa-long BOC1 peptides at 0.01 to 1 µM, 1 h at room temperature; read as % inhibition of the complex; both purified
biotinylated CD200R1 [3] = molecular target: T1, biotinylated CD200R1; test: AlphaScreen or HTRF; AlphaLISA; CD200R1-(biot)/CD200-His or CD200R1-(biot)/BOC1-His complex (each protein at 3 nM) with an anti-CD200R1 antibody (30 nM); read as remaining activity and % inhibition; both purified

Measured: binding

B1: CD200-His (ligand, UniProt P41217 31-232, looked up)
chain: QVQVVTQDEREQLYTPASLKCSLQNAQEALIVTWQKKKAVSPENMVTFSENHGVVIQPAYKDKINITQLGLQNSTITFWNITLEDEGCYMCLFNTFGFGKISGTACLTVYVQPIVSLHYKFSEDHLNITCSATARPAPMVFWKVPRSGIENSTVTLSHPNGTTSVTSILHIKDPKNQVGKEVICQVLHLGTVTDFKQTVNKG
notes: CD200 (OX-2), soluble His-tagged protein; Held on anti-6His Acceptor beads in the AlphaLISA; also called His-tagged CD200
binds: all assays above

— PMC12401969, “The gut microbiota protein BOC1 exhibits immune checkpoint inhibitor-like activity by inhibiting myeloid-derived suppressor cell differentiation” (Frontiers in Immunology, 2025)
